This note sets out measurements from publication doi:10.1101/2021.05.31.446389.

The target in experiment [1] is FLAG-tagged USP8 (human) (UniProt P40818). Nature of the experiment: co-IP.
The target of experiment [2] is USP8^Δ645–684 (human) (UniProt P40818). Put plainly: co-IP.
In experiment [3] the target is T1, GST-tagged USP domain (aa 756–1118) (human) (UniProt P40818).
T1 sequence: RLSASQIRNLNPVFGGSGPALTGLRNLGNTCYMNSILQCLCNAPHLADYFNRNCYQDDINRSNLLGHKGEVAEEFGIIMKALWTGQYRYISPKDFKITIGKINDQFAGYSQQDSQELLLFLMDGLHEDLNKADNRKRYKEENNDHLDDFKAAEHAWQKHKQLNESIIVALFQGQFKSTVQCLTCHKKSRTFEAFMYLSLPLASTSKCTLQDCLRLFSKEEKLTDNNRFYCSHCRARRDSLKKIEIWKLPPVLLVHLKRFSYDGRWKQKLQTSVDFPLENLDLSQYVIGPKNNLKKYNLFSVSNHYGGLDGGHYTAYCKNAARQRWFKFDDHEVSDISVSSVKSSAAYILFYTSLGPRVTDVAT
Nature of the experiment: pull-down.

No constants are given. Whether binding was seen depends on the method and setting. Binding seen in cells or lysates may run through a third protein. Some binding calls cover weakened binding; strength is not graded here. For part of these data: Tags and fused reporters may be left off the sequences shown.

B1: FLAG-tagged USP8 (enzyme, UniProt P40818 1-1118)
chain: MPAVASVPKELYLSSSLKDLNKKTEVKPEKISTKSYVHSALKIFKTAEECRLDRDEERAYVLYMKYVTVYNLIKKRPDFKQQQDYFHSILGPGNIKKAVEEAERLSESLKLRYEEAEVRKKLEEKDRQEEAQRLQQKRQETGREDGGTLAKGSLENVLDSKDKTQKSNGEKNEKCETKEKGAITAKELYTMMTDKNISLIIMDARRMQDYQDSCILHSLSVPEEAISPGVTASWIEAHLPDDSKDTWKKRGNVEYVVLLDWFSSAKDLQIGTTLRSLKDALFKWESKTVLRNEPLVLEGGYENWLLCYPQYTTNAKVTPPPRRQNEEVSISLDFTYPSLEESIPSKPAAQTPPASIEVDENIELISGQNERMGPLNISTPVEPVAASKSDVSPIIQPVPSIKNVPQIDRTKKPAVKLPEEHRIKSESTNHEQQSPQSGKVIPDRSTKPVVFSPTLMLTDEEKARIHAETALLMEKNKQEKELRERQQEEQKEKLRKEEQEQKAKKKQEAEENEITEKQQKAKEEMEKKESEQAKKEDKETSAKRGKEITGVKRQSKSEHETSDAKKSVEDRGKRCPTPEIQKKSTGDVPHTSVTGDSGSGKPFKIKGQPESGILRTGTFREDTDDTERNKAQREPLTRARSEEMGRIVPGLPSGWAKFLDPITGTFRYYHSPTNTVHMYPPEMAPSSAPPSTPPTHKAKPQIPAERDREPSKLKRSYSSPDITQAIQEEEKRKPTVTPTVNRENKPTCYPKAEISRLSASQIRNLNPVFGGSGPALTGLRNLGNTCYMNSILQCLCNAPHLADYFNRNCYQDDINRSNLLGHKGEVAEEFGIIMKALWTGQYRYISPKDFKITIGKINDQFAGYSQQDSQELLLFLMDGLHEDLNKADNRKRYKEENNDHLDDFKAAEHAWQKHKQLNESIIVALFQGQFKSTVQCLTCHKKSRTFEAFMYLSLPLASTSKCTLQDCLRLFSKEEKLTDNNRFYCSHCRARRDSLKKIEIWKLPPVLLVHLKRFSYDGRWKQKLQTSVDFPLENLDLSQYVIGPKNNLKKYNLFSVSNHYGGLDGGHYTAYCKNAARQRWFKFDDHEVSDISVSSVKSSAAYILFYTSLGPRVTDVAT
Turning to B1, the binding result in experiment [1] is on record as “binds”.

B2: USP8^Δ645–684 (enzyme, UniProt P40818)
chain: MPAVASVPKELYLSSSLKDLNKKTEVKPEKISTKSYVHSALKIFKTAEECRLDRDEERAYVLYMKYVTVYNLIKKRPDFKQQQDYFHSILGPGNIKKAVEEAERLSESLKLRYEEAEVRKKLEEKDRQEEAQRLQQKRQETGREDGGTLAKGSLENVLDSKDKTQKSNGEKNEKCETKEKGAITAKELYTMMTDKNISLIIMDARRMQDYQDSCILHSLSVPEEAISPGVTASWIEAHLPDDSKDTWKKRGNVEYVVLLDWFSSAKDLQIGTTLRSLKDALFKWESKTVLRNEPLVLEGGYENWLLCYPQYTTNAKVTPPPRRQNEEVSISLDFTYPSLEESIPSKPAAQTPPASIEVDENIELISGQNERMGPLNISTPVEPVAASKSDVSPIIQPVPSIKNVPQIDRTKKPAVKLPEEHRIKSESTNHEQQSPQSGKVIPDRSTKPVVFSPTLMLTDEEKARIHAETALLMEKNKQEKELRERQQEEQKEKLRKEEQEQKAKKKQEAEENEITEKQQKAKEEMEKKESEQAKKEDKETSAKRGKEITGVKRQSKSEHETSDAKKSVEDRGKRCPTPEIQKKSTGDVPHTSVTGDSGSGKPFKIKGQPESGILRTGTFREDTDDTERNKAQREPLTRARSEEMPSSAPPSTPPTHKAKPQIPAERDREPSKLKRSYSSPDITQAIQEEEKRKPTVTPTVNRENKPTCYPKAEISRLSASQIRNLNPVFGGSGPALTGLRNLGNTCYMNSILQCLCNAPHLADYFNRNCYQDDINRSNLLGHKGEVAEEFGIIMKALWTGQYRYISPKDFKITIGKINDQFAGYSQQDSQELLLFLMDGLHEDLNKADNRKRYKEENNDHLDDFKAAEHAWQKHKQLNESIIVALFQGQFKSTVQCLTCHKKSRTFEAFMYLSLPLASTSKCTLQDCLRLFSKEEKLTDNNRFYCSHCRARRDSLKKIEIWKLPPVLLVHLKRFSYDGRWKQKLQTSVDFPLENLDLSQYVIGPKNNLKKYNLFSVSNHYGGLDGGHYTAYCKNAARQRWFKFDDHEVSDISVSSVKSSAAYILFYTSLGPRVTDVAT
Regarding B2, the binding entry in experiment [2] is reported as “binds”.

B3: myc-tagged USP8^1–714 (domain or fragment, UniProt P40818 1-714)
chain: MPAVASVPKELYLSSSLKDLNKKTEVKPEKISTKSYVHSALKIFKTAEECRLDRDEERAYVLYMKYVTVYNLIKKRPDFKQQQDYFHSILGPGNIKKAVEEAERLSESLKLRYEEAEVRKKLEEKDRQEEAQRLQQKRQETGREDGGTLAKGSLENVLDSKDKTQKSNGEKNEKCETKEKGAITAKELYTMMTDKNISLIIMDARRMQDYQDSCILHSLSVPEEAISPGVTASWIEAHLPDDSKDTWKKRGNVEYVVLLDWFSSAKDLQIGTTLRSLKDALFKWESKTVLRNEPLVLEGGYENWLLCYPQYTTNAKVTPPPRRQNEEVSISLDFTYPSLEESIPSKPAAQTPPASIEVDENIELISGQNERMGPLNISTPVEPVAASKSDVSPIIQPVPSIKNVPQIDRTKKPAVKLPEEHRIKSESTNHEQQSPQSGKVIPDRSTKPVVFSPTLMLTDEEKARIHAETALLMEKNKQEKELRERQQEEQKEKLRKEEQEQKAKKKQEAEENEITEKQQKAKEEMEKKESEQAKKEDKETSAKRGKEITGVKRQSKSEHETSDAKKSVEDRGKRCPTPEIQKKSTGDVPHTSVTGDSGSGKPFKIKGQPESGILRTGTFREDTDDTERNKAQREPLTRARSEEMGRIVPGLPSGWAKFLDPITGTFRYYHSPTNTVHMYPPEMAPSSAPPSTPPTHKAKPQIPAERDREPSKLK
On to B3, for which, in experiment [3], the binding entry is on record as “binds”.
